Experimental data: doi:10.1101/2024.03.11.584396
These are yes or no findings as the source states them, for the method shown.

By UniProt entry, the sequences of proteins in these tests, tags left out.
UniProt Q9BZV2, whole entry: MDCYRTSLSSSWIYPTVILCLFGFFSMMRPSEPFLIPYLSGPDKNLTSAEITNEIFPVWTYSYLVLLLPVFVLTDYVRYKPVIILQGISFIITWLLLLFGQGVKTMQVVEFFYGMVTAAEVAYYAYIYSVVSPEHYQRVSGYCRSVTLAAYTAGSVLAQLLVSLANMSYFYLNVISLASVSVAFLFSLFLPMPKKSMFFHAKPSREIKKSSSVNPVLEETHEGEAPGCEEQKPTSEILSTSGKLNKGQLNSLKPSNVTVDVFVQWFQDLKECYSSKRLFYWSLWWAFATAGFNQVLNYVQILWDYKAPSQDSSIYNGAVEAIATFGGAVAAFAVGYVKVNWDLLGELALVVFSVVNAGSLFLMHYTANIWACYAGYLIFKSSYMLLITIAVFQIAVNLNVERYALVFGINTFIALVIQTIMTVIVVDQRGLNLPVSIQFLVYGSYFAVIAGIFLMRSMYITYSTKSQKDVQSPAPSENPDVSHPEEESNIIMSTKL

Target: human thiamine transporter SLC19A3, wildtype (human) (UniProt Q9BZV2)
Experiment: SEC

binding: no binding
Substance: human thiamine transporter SLC19A3, wildtype (from UniProt Q9BZV2 1-496)
